Laboratory results reported in PMC7299723.
Where two headings read alike, the source gives them in different places. No constants are given. Whether binding was seen depends on the method and setting. Binding seen in cells or lysates may run through a third protein. Some binding calls cover weakened binding; strength is not graded here. One block for each molecule: values may come before it.

Chains of the proteins cited; added tags and fusions are not shown.
UniProt P63018: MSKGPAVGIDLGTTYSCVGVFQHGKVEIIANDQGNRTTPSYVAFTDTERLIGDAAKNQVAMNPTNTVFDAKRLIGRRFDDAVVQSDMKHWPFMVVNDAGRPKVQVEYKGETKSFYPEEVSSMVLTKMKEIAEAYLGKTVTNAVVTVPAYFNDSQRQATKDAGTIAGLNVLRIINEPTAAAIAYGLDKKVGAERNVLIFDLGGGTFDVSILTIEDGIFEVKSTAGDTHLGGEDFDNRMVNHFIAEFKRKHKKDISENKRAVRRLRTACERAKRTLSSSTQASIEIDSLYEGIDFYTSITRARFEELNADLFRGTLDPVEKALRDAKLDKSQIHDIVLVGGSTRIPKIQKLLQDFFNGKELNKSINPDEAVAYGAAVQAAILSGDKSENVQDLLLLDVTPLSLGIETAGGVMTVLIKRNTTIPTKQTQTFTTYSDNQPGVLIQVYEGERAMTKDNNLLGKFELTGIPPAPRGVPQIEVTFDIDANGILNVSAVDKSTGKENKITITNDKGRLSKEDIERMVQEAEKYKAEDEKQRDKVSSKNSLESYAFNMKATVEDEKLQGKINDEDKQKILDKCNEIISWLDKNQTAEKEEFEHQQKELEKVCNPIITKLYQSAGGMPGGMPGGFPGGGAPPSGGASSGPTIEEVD

How the values were obtained:
Test in all cases: co-IP; endogenous proteins in extracts of cultured rat cortical neurons; anti-ZAG, anti-HADHB or anti-Hsc70 antibody (2 μg) overnight at 4°C, Protein A/G agarose, five washes with lysis buffer, Western blot; for the quantitative co-IP with anti-HSC70 the neurons were treated with apoptozole (5 μmol/L) or DMSO for 24 hours
[1] = biological target: T1, Zinc‐α2‐glycoprotein (rat (endogenous in primary cortical neurons)) (UniProt Q63678)
T1 sequence: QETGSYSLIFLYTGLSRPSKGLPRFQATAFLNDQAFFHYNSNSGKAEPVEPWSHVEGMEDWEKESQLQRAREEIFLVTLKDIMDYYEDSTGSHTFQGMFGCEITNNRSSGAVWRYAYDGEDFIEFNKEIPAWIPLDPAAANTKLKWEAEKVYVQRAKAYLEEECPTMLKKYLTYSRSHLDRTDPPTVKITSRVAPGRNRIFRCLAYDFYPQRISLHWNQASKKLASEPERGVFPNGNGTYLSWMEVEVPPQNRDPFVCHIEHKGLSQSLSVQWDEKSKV

[2] = biological target: T1, Zinc‐α2‐glycoprotein (rat (endogenous in primary cortical neurons)); remark: listed apart in the source
[3] = biological target: heat shock cognate protein 70 (rat (endogenous in primary cortical neurons)) (UniProt P63018)
[4] = biological target: T2, four β‐subunits of long‐chain L‐3‐hydroxyacyl‐CoA dehydrogenase (rat (endogenous in primary cortical neurons)) (UniProt Q60587)
T2 sequence: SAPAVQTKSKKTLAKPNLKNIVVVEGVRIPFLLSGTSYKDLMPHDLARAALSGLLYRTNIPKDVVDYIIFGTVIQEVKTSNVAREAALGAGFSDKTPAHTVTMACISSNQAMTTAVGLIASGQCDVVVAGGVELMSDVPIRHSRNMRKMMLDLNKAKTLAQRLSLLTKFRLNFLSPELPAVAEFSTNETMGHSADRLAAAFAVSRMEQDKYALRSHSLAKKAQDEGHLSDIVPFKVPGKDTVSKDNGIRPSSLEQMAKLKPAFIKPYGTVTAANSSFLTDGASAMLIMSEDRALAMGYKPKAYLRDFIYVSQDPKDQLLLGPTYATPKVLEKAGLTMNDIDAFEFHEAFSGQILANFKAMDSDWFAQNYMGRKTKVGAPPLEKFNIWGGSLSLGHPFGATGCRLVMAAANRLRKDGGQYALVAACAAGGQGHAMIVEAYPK

binding [1]: binds
Molecule: heat shock cognate protein 70 (from UniProt P63018 1-646)

binding [2]: binds
B1: four β‐subunits of long‐chain L‐3‐hydroxyacyl‐CoA dehydrogenase (enzyme, UniProt Q60587 35-475)
chain: SAPAVQTKSKKTLAKPNLKNIVVVEGVRIPFLLSGTSYKDLMPHDLARAALSGLLYRTNIPKDVVDYIIFGTVIQEVKTSNVAREAALGAGFSDKTPAHTVTMACISSNQAMTTAVGLIASGQCDVVVAGGVELMSDVPIRHSRNMRKMMLDLNKAKTLAQRLSLLTKFRLNFLSPELPAVAEFSTNETMGHSADRLAAAFAVSRMEQDKYALRSHSLAKKAQDEGHLSDIVPFKVPGKDTVSKDNGIRPSSLEQMAKLKPAFIKPYGTVTAANSSFLTDGASAMLIMSEDRALAMGYKPKAYLRDFIYVSQDPKDQLLLGPTYATPKVLEKAGLTMNDIDAFEFHEAFSGQILANFKAMDSDWFAQNYMGRKTKVGAPPLEKFNIWGGSLSLGHPFGATGCRLVMAAANRLRKDGGQYALVAACAAGGQGHAMIVEAYPK

binding [3]: binds | binding [4]: binds
B2: Zinc‐α2‐glycoprotein (protein, UniProt Q63678 18-296)
chain: QETGSYSLIFLYTGLSRPSKGLPRFQATAFLNDQAFFHYNSNSGKAEPVEPWSHVEGMEDWEKESQLQRAREEIFLVTLKDIMDYYEDSTGSHTFQGMFGCEITNNRSSGAVWRYAYDGEDFIEFNKEIPAWIPLDPAAANTKLKWEAEKVYVQRAKAYLEEECPTMLKKYLTYSRSHLDRTDPPTVKITSRVAPGRNRIFRCLAYDFYPQRISLHWNQASKKLASEPERGVFPNGNGTYLSWMEVEVPPQNRDPFVCHIEHKGLSQSLSVQWDEKSKV
